{"source": "PubChem BioAssay AID1259254 (NCATS, 2017)", "purpose": "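Gene knock-downs that lead to re-replication, shown by excess G2 DNA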 (primary screen)", "cells": "human HCT116 colorectal cancer cells", "knock-down reagent": "single siRNA against human genes", "timing": "3 days", "read-out": "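Nuclei stained with Hoechst and imaged; cell-cycle phase assigned by DNA content; G2 share scaled per plate, non-targeting siRNA 0%, GMNN siRNA 100%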", "scale": "G2 robust z-score: higher = more G2 cells, more excess DNA replication", "active means": "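An siRNA counts as active if its G2 robust z-score lies at least 5 MADs above the screen median; here such calls match roughly 38% of GMNN control or more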", "note": "Shown is an unselected part of about 59,000 reagents tested. About 1,550 of them (2.6%) were called active. 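G2 share is only a proxy for re-replication; each gene was hit by three separate siRNAs, and active genes were retested.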 Reagents against one gene are numbered here. Not all columns of the deposit are shown. The record does not give: the amount of reagent."}
{"gene knocked down": "ALKBH3 (alkB homolog 3, alpha-ketoglutarate dependent dioxygenase)", "siRNA no.": 1, "G2 robust z-score": 0.833, "Call": "inactive"}
{"gene knocked down": "ALKBH3 (alkB homolog 3, alpha-ketoglutarate dependent dioxygenase)", "siRNA no.": 2, "G2 robust z-score": -1.01, "Call": "inactive"}
{"gene knocked down": "ALKBH3 (alkB homolog 3, alpha-ketoglutarate dependent dioxygenase)", "siRNA no.": 3, "G2 robust z-score": 0.822, "Call": "inactive"}
{"gene knocked down": "SRPRA (SRP receptor subunit alpha)", "siRNA no.": 1, "G2 robust z-score": -1.03, "Call": "inactive"}
{"gene knocked down": "SRPRA (SRP receptor subunit alpha)", "siRNA no.": 2, "G2 robust z-score": -0.024, "Call": "inactive"}
{"gene knocked down": "SRPRA (SRP receptor subunit alpha)", "siRNA no.": 3, "G2 robust z-score": -1.23, "Call": "inactive"}
{"gene knocked down": "DGKK (diacylglycerol kinase kappa)", "siRNA no.": 1, "G2 robust z-score": -1.01, "Call": "inactive"}
{"gene knocked down": "DGKK (diacylglycerol kinase kappa)", "siRNA no.": 2, "G2 robust z-score": -0.478, "Call": "inactive"}
{"gene knocked down": "DGKK (diacylglycerol kinase kappa)", "siRNA no.": 3, "G2 robust z-score": 1.24, "Call": "inactive"}
{"gene knocked down": "BCL2L12 (BCL2 like 12)", "siRNA no.": 1, "G2 robust z-score": 0.95, "Call": "inactive"}
{"gene knocked down": "BCL2L12 (BCL2 like 12)", "siRNA no.": 2, "G2 robust z-score": -0.45, "Call": "inactive"}
{"gene knocked down": "BCL2L12 (BCL2 like 12)", "siRNA no.": 3, "G2 robust z-score": -0.176, "Call": "inactive"}
{"gene knocked down": "TDRP (testis development related protein)", "siRNA no.": 1, "G2 robust z-score": 0.505, "Call": "inactive"}
{"gene knocked down": "TDRP (testis development related protein)", "siRNA no.": 2, "G2 robust z-score": 1.09, "Call": "inactive"}
{"gene knocked down": "TDRP (testis development related protein)", "siRNA no.": 3, "G2 robust z-score": 1.5, "Call": "inactive"}
{"gene knocked down": "TSSK3 (testis specific serine kinase 3)", "siRNA no.": 1, "G2 robust z-score": -0.137, "Call": "inactive"}
{"gene knocked down": "TSSK3 (testis specific serine kinase 3)", "siRNA no.": 2, "G2 robust z-score": -0.169, "Call": "inactive"}
{"gene knocked down": "TSSK3 (testis specific serine kinase 3)", "siRNA no.": 3, "G2 robust z-score": -0.0244, "Call": "inactive"}
{"gene knocked down": "MAB21L1 (mab-21 like 1)", "siRNA no.": 1, "G2 robust z-score": 1.38, "Call": "inactive"}
{"gene knocked down": "MAB21L1 (mab-21 like 1)", "siRNA no.": 2, "G2 robust z-score": 0.235, "Call": "inactive"}
{"gene knocked down": "MAB21L1 (mab-21 like 1)", "siRNA no.": 3, "G2 robust z-score": -0.974, "Call": "inactive"}
{"gene knocked down": "PLEKHB2 (pleckstrin homology domain containing B2)", "siRNA no.": 1, "G2 robust z-score": -0.839, "Call": "inactive"}
{"gene knocked down": "PLEKHB2 (pleckstrin homology domain containing B2)", "siRNA no.": 2, "G2 robust z-score": 2.06, "Call": "inactive"}
{"gene knocked down": "PLEKHB2 (pleckstrin homology domain containing B2)", "siRNA no.": 3, "G2 robust z-score": -0.918, "Call": "inactive"}

A few values from the list:
For “G2 robust z-score”, SRPRA (SRP receptor subunit alpha) #3 shows -1.23
DGKK (diacylglycerol kinase kappa) #2, G2 robust z-score: -0.478
